# Values joined by “and” are separate entries in the source; they are usually repeats but may differ in a detail not shown here. Identical values can stand only once. Counter-ions that a name gives are not always drawn. ± gives the standard deviation of the averaged measurements. The list shows a part of the results. Baselines shift from plate to plate; read single values as rough.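 Primary human stellate myofibroblasts activated in culture; inactivation shown by regained lipid droplets. Readout: fraction of Hoechst-counted cells exceeding a per-plate Bodipy threshold, duplicate wells, each plate with DMSO negative and nortriptyline positive controls. Hits: control-normalized score beyond the plate's top-tenth-percentile nortriptyline wells, or among its three best wells. Final well concentrations unstated.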
# System: primary human hepatic stellate cells (donor 1)
# Test: percent Bodipy-positive cells; higher = more lipid droplet accumulation
# Conditions: 48 h
# [1] = library stock concentration: 3.33 mM
# [2] = library stock concentration: 10 mM
# [3] = library stock concentration: 100 uM
# [4] = library stock concentration: 1 mM
# [5] = library stock concentration: 80 uM
# [6] = library stock concentration: 400 uM
# [7] = library stock concentration: 2 mM
structure (smiles),measurement,setting,value
COc1cc(C(=O)NC2CCCNC2)cc(OC)c1OC (stereo not given) [Troxipide],percent Bodipy-positive cells,[1],11.1 ± 7%
same,percent Bodipy-positive cells,[2],28.2 ± 17%
c1ccc(N2CCN(Cc3nc4ccccc4[nH]3)CC2)nc1 [ABT 724 trihydrochloride],percent Bodipy-positive cells,[2],8.25 ± 2.3%
COC(=O)c1c(-c2cc(OC)c(OC)c(OC)c2)c2ccnc(OCc3ncccn3)c2c(=O)n1Cc1ccnc(C)c1 [T 0156 hydrochloride],percent Bodipy-positive cells,[2],7.23 ± 3.7%
CCCCC/C=C\C\C=C/C=C/C=C/[C@@H](SC[C@H](NC(=O)CC[C@H](N)C(=O)O)C(=O)NCC(=O)O)[C@@H](O)CCCC(=O)O [Leukotriene C4],percent Bodipy-positive cells,[3],7.82 ± 10%
CC(C)c1cc(C(=O)N2Cc3ccc(CN4CCN(C)CC4)cc3C2)c(O)cc1O,percent Bodipy-positive cells,[1],70.8 ± 14%
same,percent Bodipy-positive cells,[2],86.8 ± 0.51%
COc1ccc2cc(CC(=O)O)ccc2c1 [6-methoxy Naphthalene Acetic Acid],percent Bodipy-positive cells,[4],9.87 ± 1.1%
Cl.O=S(=O)(c1cccc2c(Cl)cccc12)N1CCCNCC1 [ML 9 hydrochloride],percent Bodipy-positive cells,[2],58.62 ± 0.29%
CC(=O)OCC(=O)[C@@]1(O)CC[C@H]2[C@@H]3C[C@H](C)C4=CC(=O)C=C[C@]4(C)[C@H]3[C@@H](O)C[C@@]21C,percent Bodipy-positive cells,[2],26.4 ± 5.1%
CC12CC3CC(C)(C1)CC(N)(C3)C2.Cl [Memantine hydrochloride],percent Bodipy-positive cells,[2],92.9 ± 2.1%
CCCCCCCCCCCCCCCNC(=O)C1CCCCC1 [N-Cyclohexanecarbonylpentadecylamine],percent Bodipy-positive cells,[4],10.5 ± 1.8%
CCOC(=O)C1=C[C@]2(CC)CCCN3CCc4c(n1c1ccccc41)[C@@H]32 [Vinpocetine],percent Bodipy-positive cells,,24.8 ± 2.2%
same,percent Bodipy-positive cells,library stock concentration: 5.7 mM,18.9% and 19%
same,percent Bodipy-positive cells,library stock concentration: 14.3 mM,11.3 ± 3.3%
CC(=O)c1cc2c(cc1O)OC(C)(C)C=C2 [Eupatoriochromene],percent Bodipy-positive cells,[2],26.68 ± 0.048%
CC1CN(S(=O)(=O)c2cccc3cnccc23)CCN1 (stereo not given),percent Bodipy-positive cells,[2],50.7 ± 4%
COc1ccccc1O [Guaiacol],percent Bodipy-positive cells,library stock concentration: 16.1 mM,8.06 ± 5%
CC1CNCCN1S(=O)(=O)c1cccc2cnccc12 (stereo not given),percent Bodipy-positive cells,[2],45.9 ± 3.4%
CCCC1([C@H](O)C/C=C/[C@H]2[C@H](O)CC(=O)[C@@H]2CCCCCCC(=O)OC)CCC1 [Butaprost],percent Bodipy-positive cells,[4],16.2 ± 2.6%
CCCC1([C@H](O)C/C=C/[C@H]2[C@H](O)CC(=O)[C@@H]2CCCCCCC(=O)OC)CCC1 [Butaprost (free acid)],percent Bodipy-positive cells,[4],17 ± 2.3%
CNCCC(Oc1ccccc1OC)c1ccccc1 (stereo not given) [Nisoxetine hydrochloride],percent Bodipy-positive cells,,27.8 ± 1.8%
COc1cc(CCC(C)=O)ccc1O [Vanillylacetone],percent Bodipy-positive cells,[1],8.18 ± 3.1%
same,percent Bodipy-positive cells,[2],19.1 ± 9.9%
O=NN(CCCl)C(=O)NC1CCCCC1 [Lomustine],percent Bodipy-positive cells,[1],12.7 ± 0.56%
same,percent Bodipy-positive cells,library stock concentration: 8.6 mM,5.65 ± 0.95%
same,percent Bodipy-positive cells,[2],11.7 ± 2.5%
O=C(O)CCn1c2c(c3ccccc31)C[C@H](NS(=O)(=O)c1ccc(F)cc1)CC2,percent Bodipy-positive cells,[4],12.9 ± 4.7%
COc1cnc(NS(=O)(=O)c2ccc(N)cc2)nc1 [Sulfameter],percent Bodipy-positive cells,,11.5 ± 5.5%
same,percent Bodipy-positive cells,[1],9.7 ± 3.3%
same,percent Bodipy-positive cells,library stock concentration: 7.1 mM,18.3 ± 1.7%
same,percent Bodipy-positive cells,[2],8.22% and 27%
O=C(O)CCC(=O)Nc1ccc(S(=O)(=O)Nc2nccs2)cc1 [Succinylsulfathiazole],percent Bodipy-positive cells,,10.9 ± 2.6%
same,percent Bodipy-positive cells,[2],24.5 ± 4.5%
Cn1cnnc1Sc1c([N+](=O)[O-])ncn1C,percent Bodipy-positive cells,[2],4.43 ± 2.5%
Cc1cccc(CN2CCN(C(c3ccccc3)c3ccc(Cl)cc3)CC2)c1 (stereo not given) [Meclozine dihydrochloride],percent Bodipy-positive cells,,48.4 ± 3.3%
Cc1cccc(CN2CCN(C(c3ccccc3)c3ccc(Cl)cc3)CC2)c1 (stereo not given) [Meclizine hydrochloride],percent Bodipy-positive cells,[2],45.2% and 69%
"CCCCCCCCCCCC=CC(C)(C)C=CCCCC(=O)O [7,7-Dimethyleicosadienoic acid]",percent Bodipy-positive cells,[4],8.79 ± 3.8%
CCCCCCCN(CC)CCCC(O)c1ccc(NS(C)(=O)=O)cc1 (stereo not given) [Ibutilide Fumarate],percent Bodipy-positive cells,[1],19.79 ± 0.17%
same,percent Bodipy-positive cells,[2],49.2 ± 5.7%
Cc1nnc(C(C)C)n1C1C[C@H]2CC[C@@H](C1)N2CC[C@H](NC(=O)C1CCC(F)(F)CC1)c1ccccc1 (stereo in doubt) [Maraviroc],percent Bodipy-positive cells,[1],5.89 ± 0.14%
same,percent Bodipy-positive cells,[2],11.6 ± 2.5%
C=C1C[C@]23C[C@@]1(O)CC[C@H]2[C@@]12C=C[C@H](O)[C@@](C)(C(=O)O1)[C@H]2[C@@H]3C(=O)O [Gibberellic acid],percent Bodipy-positive cells,,9.44 ± 0.2%
CC1(C)S[C@@H]2[C@H](NC(=O)[C@H](NC(=O)N3CCN(S(C)(=O)=O)C3=O)c3ccccc3)C(=O)N2[C@H]1C(=O)O [Mezlocillin Sodium],percent Bodipy-positive cells,[1],12.7 ± 0.22%
same,percent Bodipy-positive cells,[2],24.8 ± 1.7%
Cn1c(=O)cc(N2CCC[C@@H](N)C2)n(Cc2ccccc2C#N)c1=O [Alogliptin],percent Bodipy-positive cells,[1],5.806 ± 0.052%
same,percent Bodipy-positive cells,[2],19.7 ± 12%
Cc1ccc(NC(=O)C(C)C)cc1C1CCN(Cc2ccc(Oc3ccc(F)c(F)c3)cc2)CC1.Cl,percent Bodipy-positive cells,[2],79.8 ± 1.4%
CN(C)CCC=C1c2ccccc2CCc2ccccc21.Cl [Amitriptyline HCl],percent Bodipy-positive cells,[2],90.7 ± 1.8%
O=C(Nc1ccc2c(c1)CCN(Cc1ncn[nH]1)C2)c1ccccc1-c1ccc(C(F)(F)F)cc1,percent Bodipy-positive cells,[2],29.4 ± 14%
"N#Cc1cc([N+](=O)[O-])c2sc(C(N)=O)[n+]([O-])c2c1 [Polo-like Kinase Inhibitor II, BTO-1]",percent Bodipy-positive cells,[1],10.5 ± 0.94%
COc1cc(Nc2ncc(F)c(Nc3ccc4c(n3)N(COP(=O)(O)O)C(=O)C(C)(C)O4)n2)cc(OC)c1OC [Fostamatinib (R788)],percent Bodipy-positive cells,[1],57.2 ± 5.9%
COc1ccc(-c2cc(=O)c3c(O)cc(O[C@@H]4O[C@H](CO[C@@H]5O[C@@H](C)[C@H](O)[C@@H](O)[C@H]5O)[C@@H](O)[C@H](O)[C@H]4O)cc3o2)cc1O [Diosmin],percent Bodipy-positive cells,[1],9.03 ± 5.4%
CCCCCCCC/C=C\CCCCCCCCCCCCCC(=O)N[C@@H](CO)[C@H](O)/C=C/CCCCCCCCCCCCC [Nervonic Ceramide],percent Bodipy-positive cells,[4],8.32 ± 0.25%
CN(C)CCC(c1ccc(Cl)cc1)c1ccccn1.O=C(O)/C=C\C(=O)O (stereo not given),percent Bodipy-positive cells,[2],87.03 ± 0.49%
CCOC(=O)c1ncc2[nH]c3cccc(OC(C)C)c3c2c1C,percent Bodipy-positive cells,[2],10.9 ± 0.49%
COC1=C2C[C@@H](C)C[C@H](OC)[C@H](O)[C@@H](C)/C=C(\C)[C@H](OC(N)=O)[C@@H](OC)/C=C\C=C(/C)C(=O)NC(=CC1=O)C2=O [Geldanamycin],percent Bodipy-positive cells,[1],75.9 ± 1.6%
same,percent Bodipy-positive cells,library stock concentration: 8.9 mM,62 ± 7.7%
same,percent Bodipy-positive cells,[2],100%
CN1CC2c3ccccc3Oc3ccc(Cl)cc3C2C1 (stereo not given) [Asenapine maleate],percent Bodipy-positive cells,[2],65.9 ± 19%
CN1CC2c3ccccc3Oc3ccc(Cl)cc3C2C1 (stereo not given) [Asenapine],percent Bodipy-positive cells,[1],27.6 ± 6.7%
same,percent Bodipy-positive cells,[2],77.6 ± 2.5%
COc1ccc(C(=O)c2ccc(C)cc2)c(O)c1,percent Bodipy-positive cells,[2],41.2 ± 7.8%
NC(=O)NC(=O)Cc1ccccc1 [Phenacemide],percent Bodipy-positive cells,[2],11.9 ± 1.1%
CCCC[C@H](C)C[C@H](O)/C=C/[C@H]1[C@H](O)CC(=O)[C@@H]1CCCCC(CC(=O)O)OC (stereo not given in full) [3-methoxy Limaprost],percent Bodipy-positive cells,[4],8.26 ± 0.44%
CC1(C)[C@H]2CC[C@]1(CS(=O)(=O)O)C(=O)C2=Cc1ccc(C=C2C(=O)[C@@]3(CS(=O)(=O)O)CC[C@@H]2C3(C)C)cc1,percent Bodipy-positive cells,[2],51 ± 21%
CC1CS(=O)(=O)CCN1/N=C/c1ccc([N+](=O)[O-])o1 (stereo not given) [Nifurtimox],percent Bodipy-positive cells,,8.14 ± 2.5%
CNC(=O)Nc1ccc(-c2nc(N3CC4CCC(C3)O4)c3cnn(C4CCC5(CC4)OCCO5)c3n2)cc1,percent Bodipy-positive cells,[5],5.49 ± 0.84%
same,percent Bodipy-positive cells,[6],5.47 ± 0.38%
same,percent Bodipy-positive cells,[7],11.8 ± 2.4%
same,percent Bodipy-positive cells,[1],7.89 ± 3.7%
same,percent Bodipy-positive cells,[2],72.5% and 71.2%
CCCCC/C=C\CC1OC1C/C=C\C/C=C\CCCC(=O)O (stereo not given),percent Bodipy-positive cells,[3],11.1 ± 10%
CC(CN(C)C)CN1c2ccccc2CCc2ccccc21.O=C(O)/C=C\C(=O)O (stereo not given) [Trimipramine maleate],percent Bodipy-positive cells,[2],93.85 ± 0.59%
CSc1nc(N)c2ncn([C@@H]3O[C@H](COP(=O)(O)OP(=O)(O)OP(=O)(O)O)[C@H](O)C3O)c2n1 (stereo not given in full) [2-Methylthioadenosine triphosphate tetrasodium],percent Bodipy-positive cells,[2],38.86 ± 0.25%
CCCCCCCCCCCC1N[C@H](C(=O)O)CS1 (stereo not given in full),percent Bodipy-positive cells,[4],9.73 ± 1.7%
"CC(=O)C(C)=O [2,3-Butanedione]",percent Bodipy-positive cells,[2],29.3 ± 8.7%
c1ccc2[nH]c(-c3cscn3)nc2c1 [Thiabendazole],percent Bodipy-positive cells,[1],14.6 ± 1.7%
same,percent Bodipy-positive cells,library stock concentration: 9.9 mM,16.4 ± 2.7%
c1ccc2[nH]c(-c3cscn3)nc2c1 [Tiabendazole],percent Bodipy-positive cells,,27.2 ± 1.2%
c1ccc2[nH]c(-c3cscn3)nc2c1,percent Bodipy-positive cells,[2],39.1 ± 8.9%
Cn1cc(-c2ccc3nnc(C(F)(F)c4ccc5ncccc5c4)n3n2)cn1,percent Bodipy-positive cells,[5],15.8 ± 12%
same,percent Bodipy-positive cells,[6],14% and 16.5%
same,percent Bodipy-positive cells,[7],8.29% and 21.2%
same,percent Bodipy-positive cells,[1],9.27 ± 0.39%
OC[C@@H](O)[C@@H](O[C@@H]1O[C@H](CO)[C@H](O)[C@H](O)[C@H]1O)[C@H](O)[C@@H](O)CO,percent Bodipy-positive cells,[2],29.5 ± 3.1%
CCC(CC)CC1(C(=O)Nc2ccccc2SC(=O)C(C)C)CCCCC1,percent Bodipy-positive cells,[1],12.2 ± 4%
same,percent Bodipy-positive cells,[2],22 ± 8.5%
CN1[C@@H](CC(=O)c2ccccc2)CCC[C@H]1C[C@H](O)c1ccccc1 [Lobeline alpha (-) hydrochoride],percent Bodipy-positive cells,,43.1 ± 0.79%
CN1[C@@H](CC(=O)c2ccccc2)CCC[C@H]1C[C@H](O)c1ccccc1 [Lobeline hydrochloride],percent Bodipy-positive cells,[2],19.8% and 26.9%
CN1[C@@H](CC(=O)c2ccccc2)CCC[C@H]1C[C@H](O)c1ccccc1,percent Bodipy-positive cells,[2],28.2 ± 4.2%
CN1[C@@H](CC(=O)c2ccccc2)CCC[C@H]1C[C@H](O)c1ccccc1 [alpha-Lobeline hydrochloride],percent Bodipy-positive cells,[2],64.6 ± 1.5%
CN1[C@@H](CC(=O)c2ccccc2)CCC[C@H]1C[C@H](O)c1ccccc1 [Lobeline],percent Bodipy-positive cells,library stock concentration: 5.9 mM,12.5 ± 1.8%
Cc1c(C(=O)NN2CCOCC2)nn(-c2ccc(Cl)cc2Cl)c1-c1ccc(I)cc1,percent Bodipy-positive cells,[2],18.6 ± 2.4%
CCCCCCCCCCCCCCCCCCOC[C@@H](COP(=O)([O-])OCC[N+](C)(C)C)OC [1-Octadecyl-2-methylglycero-3 PC],percent Bodipy-positive cells,[4],9.59 ± 8.9%
CNCCC(Oc1ccc(C(F)(F)F)cc1)c1ccccc1.Cl (stereo not given),percent Bodipy-positive cells,[2],98.48 ± 0.42%
CCN1CC(CCN2CCOCC2)C(c2ccccc2)(c2ccccc2)C1=O (stereo not given) [Doxapram HCl],percent Bodipy-positive cells,[1],9.57 ± 1.2%
same,percent Bodipy-positive cells,[2],25.7 ± 4.3%
CCN1CC(CCN2CCOCC2)C(c2ccccc2)(c2ccccc2)C1=O (stereo not given),percent Bodipy-positive cells,library stock concentration: 10.4 mM,9.92 ± 4%
N[C@@H](C(=O)N[C@@H]1C(=O)N2C(C(=O)O)=C(CSc3cn[nH]n3)CS[C@H]12)c1ccc(O)cc1,percent Bodipy-positive cells,[2],9.33 ± 1.9%
C[C@]12CC[C@@H]3c4cc(O)c(O)cc4CC[C@H]3[C@@H]1CC[C@@H]2O [2-Hydroxyestradiol],percent Bodipy-positive cells,[4],12.9 ± 1.7%
Cc1cnc(CNC(=O)c2c(=O)c3ccc(N4CCCN(C)CC4)nc3n3c2sc2ccccc23)cn1,percent Bodipy-positive cells,[5],38.1 ± 8.9%
same,percent Bodipy-positive cells,[6],33 ± 2.9%
same,percent Bodipy-positive cells,[7],41.8 ± 4.9%
same,percent Bodipy-positive cells,[2],44 ± 3.1%
